This note sets out measurements from US20100008906A1.

Amino acid sequences for entries named in this document (tags omitted). A change or cut given only in a name is not applied to a line headed by its entry.
UniProt P13385: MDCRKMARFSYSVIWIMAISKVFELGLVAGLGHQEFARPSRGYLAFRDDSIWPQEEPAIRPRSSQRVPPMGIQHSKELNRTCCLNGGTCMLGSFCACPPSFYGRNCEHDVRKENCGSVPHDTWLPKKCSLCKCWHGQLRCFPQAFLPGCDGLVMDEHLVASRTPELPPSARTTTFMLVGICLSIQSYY

These are yes or no findings as the source states them, for the method shown. Some results given as binding are weak or reduced against the parent protein; the word gives no strength.

The target in the experiment is human Cripto (CRIPTO antigen on GEO human colon adenocarcinoma cells) (human) (UniProt P13385). The experiment can be described thus: assay not described.

B1: Full-length Version 2, huB3F6 L1/H2 (version 1 light chain and version 2 heavy chain) (antibody, human IgG1, V domains shown)
VH: EVQLVESGAEVKKPGASVKVSCKASGYTFTSYWIHWVRQAPGQGLEWMGENDPSNGRTNYNEKFKNRVTLTVDTSISTAYMELSRLRSDDTAVYYCARGPNYFYSMDYWGQGTMVTVSS
VL: DFVMTQSPLSLPVTPGEPASISCRSSQSIVHSNGNTYLEWYLQKPGQSPQLLIYKVSNRFSGVPDRFSGSGSGTDFTLKISRVEAEDVGVYYCFQGSHVPLTFGQGTKLEIKR
Regarding B1, the binding result is “binds”.
